In publication PMC8531669, “Quantitative proteomics identifies the universally conserved ATPase Ola1p as a positive regulator of heat shock response in Saccharomyces cerevisiae” (The Journal of Biological Chemistry, 2021) one finds binding data, which are given here for one molecule.

Results are given in words; binding and its absence hold for the method and conditions named.

The assay has as its target Ola1p (S. cerevisiae) (UniProt P38219). The assay can be described thus: condition: only at temperatures close to 25 °C (10 μM Ola1p); dynamic light scattering; 10 μM (0.5 mg/ml) Ola1p in 20 mM PIPES pH 7.0, 100 mM KCl, 1 mM TCEP; temperature ramp 0.3 °C/min from 20 °C; read at temperatures close to 25 °C; both purified.

B1: Ola1p (natural protein, S. cerevisiae, UniProt P38219 1-394, looked up)
chain: MPPKKQVEEKKVLLGRPGNNLKAGIVGLANVGKSTFFQAITRCPLGNPANYPFATIDPEEARVIVPSPRFDKLCEIYKKTASEVPAHLTVYDIAGLTKGASAGEGLGNAFLSHIRSVDSIYQVVRCFDDAEIIHVEGDVDPVRDLEIINQELRLKDIEFAQKALEGAEKIAKRGGQSLEVKQKKEEMDLITKIIKLLESGQRVANHSWTSKEVEIINSMFLLTAKPCIYLINLSERDYIRKKNKHLLRIKEWVDKYSPGDLIIPFSVSLEERLSHMSPEDAEEELKKLQTISALPKIITTMRQKLDLISFFTCGPDEVREWTIRRGTKAPQAAGVIHNDLMNTFILAQVMKCEDVFEYKDDSAIKAAGKLMQKGKDYVVEDGDIIYFRAGAGKN
notes: Ola1p (Obg-like ATPase 1), S. cerevisiae, systematic name Ybr025c; The methods say that the MBP tag was cleaved with Precision protease; also called Ybr025c; MBP-Ola1p (before cleavage); source: insect cells (baculovirus expression system), purified (amylose resin, size-exclusion chromatography); not shown: MBP, N-terminal, cleaved
As for B1, the binding entry is given as “no binding”.
